# Laboratory results as given in paper PMC7819943, “Rice protein-binding microarrays: a tool to detect cis-acting elements near promoter regions in rice”.
# This is one part of the list.
# Target: T1, OsSMF1 (Oryza sativa, UniProt Q6ZLB0 1-436)
# T1 sequence: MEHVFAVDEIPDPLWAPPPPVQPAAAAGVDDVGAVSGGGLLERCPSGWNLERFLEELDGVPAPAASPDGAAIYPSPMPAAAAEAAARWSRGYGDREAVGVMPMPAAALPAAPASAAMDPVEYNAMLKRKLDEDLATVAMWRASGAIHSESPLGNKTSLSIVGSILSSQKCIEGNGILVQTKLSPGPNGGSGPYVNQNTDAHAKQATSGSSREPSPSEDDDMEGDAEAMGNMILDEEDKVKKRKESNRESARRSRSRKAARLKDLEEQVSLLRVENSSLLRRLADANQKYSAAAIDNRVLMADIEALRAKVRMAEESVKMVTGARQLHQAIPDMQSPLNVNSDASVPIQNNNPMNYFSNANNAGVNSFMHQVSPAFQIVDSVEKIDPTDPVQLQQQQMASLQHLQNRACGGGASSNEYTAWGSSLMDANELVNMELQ
# Assay: protein-binding microarray (RPBM); PBS, 2% BSA, 51.3 ng/ul salmon testes DNA, 50 uM zinc acetate, 200 nM TF, 25 C, 1 h; high values mean tight binding
# Conditions: protein: recombinant; tags: N-terminal polyhistidine and DsRed monomer fusion (pET32a); chain copies: 2; label: CyDye5-dUTP incorporated in the synthesized complementary strand; 3' TTTTT single-stranded linker to array surface; dsDNA, one strand shown
# Method in brief: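 The binding signal is fluorescence intensity per feature, in arbitrary units, read on an Axon 4000B scanner. Polyhistidine- and DsRed-tagged transcription factors (N-terminal fusions) from E. coli BL21-CodonPlus were purified on Ni–NTA and applied at 200 nM for 1 h at 25 °C to a double-stranded, BSA-blocked custom Agilent array in buffer with 50 µM zinc acetate.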
row,Sequence,binding signal
1,CACGAGACGAATCTTTTAAGCCTAATTGCGTCATGATTTGCGGAGTCACCTAGTGCAG,6280 fluorescence intensity (a.u.)
2,TATAAATTTGGACACATATATGAAACACATATATTGATCCCGGAGTCACCTAGTGCAG,30400 fluorescence intensity (a.u.)
3,TGTGCGGTGTGTTGACGAAATTCACTGACAGGGGAGCATGCGGAGTCACCTAGTGCAG,3190 fluorescence intensity (a.u.)
4,AGTACTTACGTCAGATTTTCCTTCCTTTTCCATTGTACGTCGGAGTCACCTAGTGCAG,10100 fluorescence intensity (a.u.)
5,AGAAACGTCCTTTCCTATCCGGCACAGTGCGCGAAAGGGCCGGAGTCACCTAGTGCAG,23400 fluorescence intensity (a.u.)
6,CTCCTTTCGTAGGAATCCAGGCCCGCTGACCGCGTCATGCCGGAGTCACCTAGTGCAG,3430 fluorescence intensity (a.u.)
7,GTTTTGGATAGCTTAGTGGCGTCATCCTGTTTTCTCTATACGGAGTCACCTAGTGCAG,3770 fluorescence intensity (a.u.)
8,GACCCTACGTGGCGGCTGAATCGGCATGGGACCCACGTGGCGGAGTCACCTAGTGCAG,15600 fluorescence intensity (a.u.)
9,CGTGGGCGCGACACACGTCTCAAGGCTGTGTCTGTACGTCCGGAGTCACCTAGTGCAG,3140 fluorescence intensity (a.u.)
10,GGATGATGTGACTTAATAACAGAAGAGAGAAATAATATTACGGAGTCACCTAGTGCAG,40600 fluorescence intensity (a.u.)
11,ATTTAACTATCTGTCACTTTTACATGTGGCATCACTTAACCGGAGTCACCTAGTGCAG,5130 fluorescence intensity (a.u.)
12,TGTAAGCAGGAAGCCTACGTGGCAACTTTACGGCGCAACGCGGAGTCACCTAGTGCAG,9490 fluorescence intensity (a.u.)
13,CTATCTCGCCGAGTCGCCAGTCACCGCCTCGACGCCGGTCCGGAGTCACCTAGTGCAG,3160 fluorescence intensity (a.u.)
14,TTGTGATCCTAGCCTGCAACATATGTAGTATTCCTATCCTCGGAGTCACCTAGTGCAG,4790 fluorescence intensity (a.u.)
15,ATTCATCATAACAATATAAAGATTTGTTTCAGATTAGTCCCGGAGTCACCTAGTGCAG,31100 fluorescence intensity (a.u.)
16,GGTTTGCCGATCTTAGCTACATCATTGCTTCCACCTTTGCCGGAGTCACCTAGTGCAG,4600 fluorescence intensity (a.u.)
17,TCTCTCTAGAAAGTTACTGGGTGACACCACACAGAACCCCCGGAGTCACCTAGTGCAG,5210 fluorescence intensity (a.u.)
18,ATGATTTATAAGAATATAATTCGGACTTGACGTCAAGATGCGGAGTCACCTAGTGCAG,3860 fluorescence intensity (a.u.)
19,GATGGTCACTAGTCACCACGTACGCGAAATTTCCAAGCTCCGGAGTCACCTAGTGCAG,5820 fluorescence intensity (a.u.)
20,TACTCGGATTAATTGCTTAGAGAGTACATGTAGACTATTGCGGAGTCACCTAGTGCAG,35600 fluorescence intensity (a.u.)
21,GTCATGCTAGCCAGCTGCATTGTGATCTCCACGGCGGCGACGGAGTCACCTAGTGCAG,3790 fluorescence intensity (a.u.)
22,ACATGTGGGCCAGCAGCCCAGCACGTGTCTTCCCCTGTTGCGGAGTCACCTAGTGCAG,5970 fluorescence intensity (a.u.)
23,CTTTTATGGGCGTGGGCCCTACGCGTGTGCGCACGAGGAGCGGAGTCACCTAGTGCAG,3280 fluorescence intensity (a.u.)
24,GAGGAGGAGGAGGCTGATGTGGCAGCCTGACATGTGGGGCCGGAGTCACCTAGTGCAG,7020 fluorescence intensity (a.u.)
25,TTCCAGACGCGTCACCACTCTTCACCCACCATTCCAGTGCCGGAGTCACCTAGTGCAG,8520 fluorescence intensity (a.u.)
26,CGCCGGAGACGCCATTGCCGTGATCTGGTGGTGGTTACCTCGGAGTCACCTAGTGCAG,4090 fluorescence intensity (a.u.)
27,CTCTGCCTCTGCTCCGGCCTCCACGCCCCATCGCCGCCGCCGGAGTCACCTAGTGCAG,3180 fluorescence intensity (a.u.)

row,Sequence,binding signal
1,TCGAAGTGGTATTCCGATGATCTCACGCGGCCACGCTCCCCGGAGTCACCTAGTGCAG,3260 fluorescence intensity (a.u.)
2,TTGCATCGTGGGCTTAGCGTCACGCCGAAGTGACCCCTCACGGAGTCACCTAGTGCAG,5290 fluorescence intensity (a.u.)
3,GCGTTTTCGGCGGGGAACGCGGGGAGGCGGGTGGGGTTGACGGAGTCACCTAGTGCAG,4290 fluorescence intensity (a.u.)
4,CAACCTCCAGCTCATGGCTACTCTCTCTCTCTCTCTCTCTCGGAGTCACCTAGTGCAG,5380 fluorescence intensity (a.u.)
5,AATACAGCACATACTATATGTATATTTGGTGACGCCCTCTCGGAGTCACCTAGTGCAG,3180 fluorescence intensity (a.u.)
6,TTTGAAGTCAGCAATGTAACACGTGGCCGAATCAGATTGCCGGAGTCACCTAGTGCAG,12600 fluorescence intensity (a.u.)
7,AGATGCTGCTTCTGGGAGAAGTAGACCACGTGTGGTTTGCCGGAGTCACCTAGTGCAG,3640 fluorescence intensity (a.u.)
8,ATAGAGTGACCTTAGCAATTGGTGATGGGGCAAATGATGTCGGAGTCACCTAGTGCAG,3540 fluorescence intensity (a.u.)
9,GCAGCTACGGCTTTGTGAACTCTGGCTCCATGCTGTCACCCGGAGTCACCTAGTGCAG,10300 fluorescence intensity (a.u.)
10,AATTCTCAAATAAATCAGTAGTGAGACAATGGTGCCAATCCGGAGTCACCTAGTGCAG,3560 fluorescence intensity (a.u.)
11,TCTCAGCCTGTCCAATTCATACAAAGCCTACGCAGTAAGACGGAGTCACCTAGTGCAG,20200 fluorescence intensity (a.u.)
12,ACGTGCTACACGTGGCAGACAGACATGTGGGCCCTCCCCACGGAGTCACCTAGTGCAG,15100 fluorescence intensity (a.u.)
13,GGCGTGCGTACCAGTGCTGTTCGTCGTCGTCATCGCTCGACGGAGTCACCTAGTGCAG,5110 fluorescence intensity (a.u.)
14,CGCCCGACGCCGCCGCAACTGCCGTAAGCGGCTTTATCACCGGAGTCACCTAGTGCAG,3190 fluorescence intensity (a.u.)
15,TTGGTGCTGGTGGAGTTGATGTGGGCGGTGAGACATCAAACGGAGTCACCTAGTGCAG,3650 fluorescence intensity (a.u.)
16,TCCTAGGAGTTGTTTCTACCTGTGCTGCTGCTGCTGATTTCGGAGTCACCTAGTGCAG,33500 fluorescence intensity (a.u.)
17,CCAGGAGCTCCTTCCTGCCACGTCATCAATGGCGATGATGCGGAGTCACCTAGTGCAG,17000 fluorescence intensity (a.u.)
18,TGACTAGTTGAAAATATGACTATGAATTTGAGGCACTACCCGGAGTCACCTAGTGCAG,3940 fluorescence intensity (a.u.)
19,AAGAGATGGGGATTAAACCAATTGGGCCGAAAGATATGTCCGGAGTCACCTAGTGCAG,41200 fluorescence intensity (a.u.)
20,CGACGGCTTCCCGCCGCCGTATCCGTCACCACTAGCCACCCGGAGTCACCTAGTGCAG,4170 fluorescence intensity (a.u.)
21,AATGTCAGGGATGATCAGCCAACGTGGCAAATATGCTAATCGGAGTCACCTAGTGCAG,4900 fluorescence intensity (a.u.)
22,TGCTCCGCCGCGCTCCACACCAGCCGCTGCCGCCGCCGCCCGGAGTCACCTAGTGCAG,20100 fluorescence intensity (a.u.)
23,CGCGGTGCCGCCATTGCCGCCTCACTCCTCCTCCACTCCCCGGAGTCACCTAGTGCAG,3180 fluorescence intensity (a.u.)
24,CGGAGAACGTGACGGGGCCATAGAGGGAAGGGTGGCGTGACGGAGTCACCTAGTGCAG,3150 fluorescence intensity (a.u.)
25,TCAGCCGTAGATACAAGATCTGACGGTGCAGATGGAAGGGCGGAGTCACCTAGTGCAG,3760 fluorescence intensity (a.u.)
26,TTCAGTGGTGCGCGCGTGGTGGCGCCACGGAGGCCGACAACGGAGTCACCTAGTGCAG,3690 fluorescence intensity (a.u.)
27,GGGATATCTCTCCCCTCCTAACTAAATAAAGGAAGGAAGCCGGAGTCACCTAGTGCAG,5610 fluorescence intensity (a.u.)

# Quoted at random: 4 entries already listed.
row,Sequence,binding signal
4,CAACCTCCAGCTCATGGCTACTCTCTCTCTCTCTCTCTCTCGGAGTCACCTAGTGCAG,5380 fluorescence intensity (a.u.)
26,TTCAGTGGTGCGCGCGTGGTGGCGCCACGGAGGCCGACAACGGAGTCACCTAGTGCAG,3690 fluorescence intensity (a.u.)
13,GGCGTGCGTACCAGTGCTGTTCGTCGTCGTCATCGCTCGACGGAGTCACCTAGTGCAG,5110 fluorescence intensity (a.u.)
2,TTGCATCGTGGGCTTAGCGTCACGCCGAAGTGACCCCTCACGGAGTCACCTAGTGCAG,5290 fluorescence intensity (a.u.)
